Some of the results follow.
B1: il10ra_site1_sap_19_mot_HHH_b2_04681_000000155_0001_43_57_H_._HHH_b1_01263_0001_0000100012_0000001_0_0001 (protein)
chain: SSSSDEAERYVKLALRFARWLAEEGDPEAAKRMIEAAHVIAENNNNPELEELVREAEEELSSSSS
B2: il10ra_site1_sap_12_mot_HHH_b2_03831_000000013_0001_40_54_H_._HHH_b2_02451_af2_0001_0000100005_0000001_0_0001 (protein)
chain: SSSSDEEVVRLLQEAFEAILHGDPEKAEEIAEEALRLAEELGDPRLERIARDLLQAIRARGSSSS
B3: il10ra_site1_sap_24_mot_HHH_b1_03900_000000129_0001_1_16_H_._HHH_b2_05734_af2_0001_0000100005_0000001_0_0001 (protein)
chain: SSSSSSEEEFEEIVERLEELGNPHLAELVRAALRLYRQVGSEFFHLAAELALELAEERGSSSSSS
B4: il10ra_site1_sap_15_mot_HHH_b2_00943_af2_000000149_0001_1_17_H_._HHH_b1_04057_0001_0000100001_0000002_0_0001 (protein)
chain: SSSREEVEEIVEEAKKLAKEQNDEELERYVEIARHFVEAALKQGNEELAEMIARMLLKAVRDASS
B5: il10ra_site1_sap_20_mot_ems_3hM_235_000000244_0001_46_64_H_._HHH_b1_03746_0001_0000200014_0000001_0_0001 (protein)
chain: SSSSTDEELLEAALRLAEQALEWGDPEAARFLVEAAIMLAREINDEELLEELERLLEELESSSSS
B6: il10ra_site1_normal_mot_HHH_b2_08050_000000089_0001_21_37_H_._HHH_b2_00643_0001_0000200012_0000001_0 (protein)
chain: SSSSSYAEQVRRFVRALIEFSEKTGDERALEAAKSILRLAIESLGDPELEELLHELEELLSSSSS
B7: il10ra_site1_sap_16_mot_HHH_b2_02736_000000092_0001_22_38_H_._HHH_b1_04467_0001_0000300024_0000002_0_0001 (protein)
chain: SSSSSDEEEIKELSEEAKELLEKGNPEEALRVLLEALRLALRLGDEELLQELWELIKRVASSSSS
B8: il10ra_site1_sap_24_mot_HHH_b1_07219_af2_000000236_0001_1_17_H_._HHH_b1_02526_af2_0001_0000300018_0000001_0_0001 (protein)
chain: SSSSSSDAERYIRLTLRFAKRLQDPEARKFMLEAALEMAERLGDEELREEIEELIERLSSSSSSS
B9: il10ra_site1_sap_16_mot_6792f2186577ebd01aa11eb855ed7b57_0001_af2_000000149_0001_1_16_H_._HHH_b2_07280_0001_0000200007_0000001_0_0001_af2pred_0001 (protein)
chain: SSSSDVEEREKELEEELERLLEEGDDEEFLRVLREAVRLAQENGNEELLRRLMELAEEAKSSSSS
B10: il10ra_site1_normal_mot_HHH_b2_00622_af2_000000153_0001_40_57_H_._HHH_b2_06400_0001_0000200017_0000001_0_af2pred_0001 (protein)
chain: SSSSDDLQRLLEWLIKAARQLYENGNPEAAKLALRDAAAAARALGDEELLEEIERLLEEISSSSS
B11: il10ra_site1_normal_mot_HHH_b1_06994_000000193_0001_40_55_H_._HHH_b1_00400_0001_0000300011_0000001_0 (protein)
chain: SSSDKQERELVRTALRLVEQAVKAGDEETAEFLVISMEILARELNDPRLEELVEEAEELINSSSS
B12: il10ra_site1_sap_13_mot_HHH_b2_05540_000000178_0001_1_18_H_._HHH_b1_08523_0001_0000100004_0000001_0_0001 (protein)
chain: SSSSSSRSAETQLRAVEHVLKLGDEEYARLAARFLLAIARALNDPEYSEIAEEILEELNSSSSSS
B13: il10ra_site1_normal_mot_HHH_b1_02997_000000220_0001_39_52_H_._HHH_b1_01312_0001_0000400040_0000001_0_af2pred_0001 (protein)
chain: SSSSDLLEEVIELSREAAKLLAEGNPEEARKVVEEALELAEEAGDEEAELIIRFLEEQITSSSSS
B14: il10ra_site1_normal_mot_HHH_b1_00999_000000080_0001_41_55_H_._HHH_b2_02582_af2_0001_0000100004_0000001_1 (protein)
chain: SSSSSSDEFTRLAAEAVRLAFRNGDDETLREIWELVKRWGEEGDPRIEEALEELLEELSSSSSSS
B15: il10ra_site1_sap_21_mot_HHH_b2_00612_000000251_0001_1_14_H_._HHH_b1_05509_0001_0000700038_0000001_0_0001_af2pred_0001 (protein)
chain: SSSSSRAEYLLRAAELAIRYALEEGDEELAKAVFRVMKLALEKLGDEEALEELREFFEEYSSSSS
B16: il10ra_site1_normal_mot_HHH_b2_06857_af2_000000179_0001_42_54_H_._HHH_b1_03840_af2_0001_0000100002_0000003_0 (protein)
chain: SSSSDEIAQEIFELIREAAELHSNGNPEEAREVLEEAKELAEEINNHLLRFQIEFLLRLGSSSSS
B17: il10ra_site1_normal_mot_HHH_b1_05088_af2_000000046_0001_20_36_H_._HHH_b1_01942_af2_0001_0000200004_0000002_0_af2pred_0001 (protein)
chain: SSSSSDEEELEEEVERLLEEAKHVSVHERIELLREALELAKENNDPELLRLVREVVRKLVSSSSS
B18: il10ra_site1_sap_21_mot_HHH_b1_01874_000000035_0001_1_20_H_._HHH_b1_07467_0001_0000100001_0000003_0_0001 (protein)
chain: SSSSDELSRRIMELIEKAMELDLEGNPEEARELLEEAEKLAEEKGDPLMEVQLRWLLERINSSSS
B19: il10ra_site1_normal_mot_HHH_b2_07731_000000003_0001_42_56_H_._HHH_b2_03755_0001_0000300014_0000001_1_af2pred_0001 (protein)
chain: SSSSSSSDVEEEVRELLEEAEEDPDRAAELLRRAAELAAELNDPELLRLVVEVVQRITSSSSSSS
B20: il10ra_site1_normal_mot_HHH_b1_06914_000000280_0001_1_18_H_._HHH_b2_08355_af2_0001_0000500007_0000001_0_af2pred_0001 (protein)
chain: SSSSSSEEEKSEELREKLEEAVENRDAHLVYRLLKEVLEFVFETNDEELLEVVRRAAHLLSSSSS
B21: il10ra_site1_sap_19_mot_HHH_b2_04680_000000215_0001_1_16_H_._HHH_b1_04594_af2_0001_0001300013_0000001_0_0001 (protein)
chain: SSSSSEEELEELVEELEKLVERNDLERFAELAQEALRLAFQLGDKEVLRRLWELVERIAGSSSSS
B22: il10ra_site1_normal_mot_HHH_b2_00984_000000042_0001_1_20_H_._HHH_b2_05309_0001_0000100012_0000001_0 (protein)
chain: SSSSSEEEEQIEELLEEVKELLRQGDPREALRVLQEAAQLAMRANNAELLQEIWELIRKVASSSS
B23: il10ra_site1_sap_16_mot_0aa80e4383ff73b96d266796d974ca63_0001_000000257_0001_1_11_H_._HHH_b1_04144_af2_0001_0000300005_0000001_0_0001 (protein)
chain: SSSSQEAYEAARRIIEEFIEAVRRGDDERARELLEELRELAEELNNPILRRLVEVLEKALRSSSS
B24: il10ra_site1_sap_17_mot_HHH_b2_05984_000000071_0001_38_52_H_._HHH_b2_07300_af2_0001_0000300006_0000001_0_0001_af2pred_0001 (protein)
chain: SSSSSASERVIRLIREAFKLLHEGNPEEAEELIEEAKKIAEENNNRALRRAIEAAERALRSSSSS

What follows are binders tested against il10ra, Q13651 (assay: yeast display titration).

Apparent Kd, inactive:
B1 no binding seen
B2 no binding seen
B3 no binding seen
B4 no binding seen
B5 no binding seen
B6 no binding seen
B7 no binding seen
B8 no binding seen
B9 no binding seen
B10 no binding seen
B11 no binding seen
B12 no binding seen
B13 no binding seen
B14 no binding seen
B15 no binding seen
B16 no binding seen
B17 no binding seen
B18 no binding seen
B19 no binding seen
B20 no binding seen
B21 no binding seen
B22 no binding seen
B23 no binding seen
B24 no binding seen

Fetched one by one from above, 2 records:
Apparent Kd, inactive:
B9 no binding seen
B5 no binding seen

— article PMC10163288
